Assay results reported in article doi:10.1101/339499.

T1: Rpc128-Flag (pol III subunit Rpc128, FLAG-tagged) (yeast) (UniProt P22276)
T1 sequence: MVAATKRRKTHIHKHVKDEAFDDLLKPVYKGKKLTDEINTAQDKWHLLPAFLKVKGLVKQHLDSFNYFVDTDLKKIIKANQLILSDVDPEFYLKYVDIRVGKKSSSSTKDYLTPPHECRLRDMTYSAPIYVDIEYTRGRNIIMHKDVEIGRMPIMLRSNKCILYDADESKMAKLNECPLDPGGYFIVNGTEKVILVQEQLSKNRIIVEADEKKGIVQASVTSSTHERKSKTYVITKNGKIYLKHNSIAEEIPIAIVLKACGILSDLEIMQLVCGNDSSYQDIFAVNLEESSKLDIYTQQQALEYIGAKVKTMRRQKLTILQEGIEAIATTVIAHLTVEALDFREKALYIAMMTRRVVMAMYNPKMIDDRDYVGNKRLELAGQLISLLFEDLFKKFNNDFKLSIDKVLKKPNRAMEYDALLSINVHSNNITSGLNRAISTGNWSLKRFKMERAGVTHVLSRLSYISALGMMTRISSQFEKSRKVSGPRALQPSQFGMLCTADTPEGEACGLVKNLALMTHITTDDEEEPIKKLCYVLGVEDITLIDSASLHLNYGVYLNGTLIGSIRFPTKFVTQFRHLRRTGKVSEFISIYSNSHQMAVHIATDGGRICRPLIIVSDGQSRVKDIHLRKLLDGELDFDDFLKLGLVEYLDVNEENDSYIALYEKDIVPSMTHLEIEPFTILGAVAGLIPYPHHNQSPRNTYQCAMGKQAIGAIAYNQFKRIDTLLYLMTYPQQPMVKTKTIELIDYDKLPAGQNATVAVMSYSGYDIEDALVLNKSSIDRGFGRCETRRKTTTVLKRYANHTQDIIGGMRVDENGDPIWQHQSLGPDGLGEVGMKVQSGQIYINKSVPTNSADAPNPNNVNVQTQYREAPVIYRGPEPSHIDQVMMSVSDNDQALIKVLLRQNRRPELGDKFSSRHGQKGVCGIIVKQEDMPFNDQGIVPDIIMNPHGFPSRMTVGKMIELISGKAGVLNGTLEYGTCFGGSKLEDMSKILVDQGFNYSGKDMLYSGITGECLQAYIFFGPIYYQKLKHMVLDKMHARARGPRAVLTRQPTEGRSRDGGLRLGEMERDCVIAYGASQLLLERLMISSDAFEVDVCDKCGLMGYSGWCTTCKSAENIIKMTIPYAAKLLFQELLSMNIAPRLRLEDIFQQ

T2: Brf1-FLAG (TFIIIB subunit Brf1, FLAG-tagged) (yeast) (UniProt P29056)
T2 sequence: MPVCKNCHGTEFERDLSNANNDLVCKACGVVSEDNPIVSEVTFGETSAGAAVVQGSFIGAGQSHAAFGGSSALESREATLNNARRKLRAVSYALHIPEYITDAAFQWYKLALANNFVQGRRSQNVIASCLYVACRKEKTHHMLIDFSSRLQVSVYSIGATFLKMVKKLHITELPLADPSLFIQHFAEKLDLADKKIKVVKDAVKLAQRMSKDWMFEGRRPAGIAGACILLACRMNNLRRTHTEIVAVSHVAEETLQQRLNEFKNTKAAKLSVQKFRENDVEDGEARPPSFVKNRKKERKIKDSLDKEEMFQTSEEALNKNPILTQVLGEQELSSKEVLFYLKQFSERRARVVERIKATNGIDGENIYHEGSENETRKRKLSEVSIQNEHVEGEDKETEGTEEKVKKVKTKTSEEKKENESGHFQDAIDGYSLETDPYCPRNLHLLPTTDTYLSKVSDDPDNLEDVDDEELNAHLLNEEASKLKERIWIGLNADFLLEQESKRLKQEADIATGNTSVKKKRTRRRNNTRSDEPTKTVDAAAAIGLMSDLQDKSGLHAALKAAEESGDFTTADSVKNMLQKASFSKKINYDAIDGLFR

T3: Tfc6-FLAG (TFIIIC subunit Tfc6, FLAG-tagged) (yeast) (UniProt Q06339)
T3 sequence: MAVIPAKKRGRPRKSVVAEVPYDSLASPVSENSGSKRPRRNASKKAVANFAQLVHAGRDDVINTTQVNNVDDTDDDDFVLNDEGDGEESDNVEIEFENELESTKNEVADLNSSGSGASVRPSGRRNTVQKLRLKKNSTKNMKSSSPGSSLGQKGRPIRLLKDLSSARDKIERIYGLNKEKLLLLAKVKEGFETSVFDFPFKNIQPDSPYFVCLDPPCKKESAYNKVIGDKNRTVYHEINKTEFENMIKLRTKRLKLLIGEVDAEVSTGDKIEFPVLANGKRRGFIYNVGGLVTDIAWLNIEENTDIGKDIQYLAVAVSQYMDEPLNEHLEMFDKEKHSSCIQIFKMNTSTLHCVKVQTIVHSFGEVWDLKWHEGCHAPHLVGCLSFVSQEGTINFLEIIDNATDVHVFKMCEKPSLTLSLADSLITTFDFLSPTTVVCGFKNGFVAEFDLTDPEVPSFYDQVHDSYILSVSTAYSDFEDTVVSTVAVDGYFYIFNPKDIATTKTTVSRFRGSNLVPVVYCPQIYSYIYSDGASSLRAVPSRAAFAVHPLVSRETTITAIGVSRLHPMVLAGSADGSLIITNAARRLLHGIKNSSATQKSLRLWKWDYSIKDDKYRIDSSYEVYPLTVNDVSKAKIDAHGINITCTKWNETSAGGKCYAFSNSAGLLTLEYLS


Key:
Test in all cases: affinity purification with mass spectrometry
[1] = biological target: T1, Rpc128-Flag (pol III subunit Rpc128, FLAG-tagged) (yeast)
[2] = biological target: T2, Brf1-FLAG (TFIIIB subunit Brf1, FLAG-tagged) (yeast)
[3] = biological target: T1, Rpc128-Flag (pol III subunit Rpc128, FLAG-tagged) (yeast); remark: listed apart in the source
[4] = biological target: T3, Tfc6-FLAG (TFIIIC subunit Tfc6, FLAG-tagged) (yeast)
[5] = biological target: T2, Brf1-FLAG (TFIIIB subunit Brf1, FLAG-tagged) (yeast); remark: listed apart in the source
[6] = biological target: T3, Tfc6-FLAG (TFIIIC subunit Tfc6, FLAG-tagged) (yeast); remark: listed apart in the source

| binding [1] | binding [2] | binding [3] | binding [4] | binding [5] | binding [6] | Molecule |
| --- | --- | --- | --- | --- | --- | --- |
| binds | binds | binds | binds | – | – | Rtf1 (subunit of the Paf1 complex) (from UniProt P53064 1-558) |
| binds | – | – | – | binds | binds | Leo1 (subunit of the Paf1 complex) (protein, UniProt P38439 1-464) MSSESPQDQPQKEQISNNVGVTTNSTSNEETSRSQDDNVKEVNGNDDTKEEEQEEDAELDDLFGDDNDDDDDDDVKKSETEKSDSDSDEDDEGENINHRSRHRESLGLDDDEAEEQAMYTRKFYGEDANNFSDQDETTHTFKEENVELVRHIIPSKANVNETASHNEIFYARIPNFLTIDPIPFDPPSFEAKVNERASNSASREDQLDDRLIDENTVRWRYSRDKDQHVFKESNTQIVQWSDGTYSLKVGEECTDILVNDTSNTFLTVSHDQQELIQCYEGGEIKKTLMFIPTSTNSKIHQKLSKAVIRRNQRQSKGPGTYIVSMDPEVEKKELERKQSQILRDRRRRQLKEKEKQESPDAAFETGFRKQNSPTTYGASRRNEYEEDDFLVDDDEEEEAAFDDEEDDNEEEEEEEDADEENASRLRNLKREGAAMYREEEEEEKDRSETKRRRVAVIEDDEDED |
| binds | – | – | – | binds | binds | Cdc73 (subunit of the Paf1 complex) (protein, UniProt Q06697 1-393) MANSLDRLREHLKNGDKLVLKNNEGQSTDDITKATMVETLSSDGSTQDSFPLNEETEIEIDGSLVQLRIIVHCWMNKDSSAADYLADCQNKQLTNVSFLQRTDLINWLSGNTESSQYLKAPGQKGETSDKVDIENKTLAGELSTVKSTTSASLENDSEVSDPVVVETMKHERILVDHNSALRGAKPINFGYLIKDAELKLVQSIKGSLRGSKLPPGHKGAHGRISKTNGSSGGPRKDPIILIPSAASSILTVANIKQFLLESKYVNPRNLPSVPNGLVNIEKNFERISRPIRFIIVDNTRMFTKPEYWDRVVAIFTTGHTWQFNNYQWNSPQELFQRCKGYYFHFAGDSVPQHVQQWNVEKVELDKNKRFKDVEVVRYFWHSLEKELISRGYR |
| binds | – | – | – | binds | binds | Ctr9 (subunit of the Paf1 complex) (protein, UniProt P89105 1-1077) MTNAMKVEGYPSMEWPTSLDIPLKASEELVGIDLETDLPDDPTDLKTLLVEENSEKEHWLTIALAYCNHGKTNEGIKLIEMALDVFQNSERASLHTFLTWAHLNLAKGQSLSVETKEHELTQAELNLKDAIGFDPTWIGNMLATVELYYQRGHYDKALETSDLFVKSIHAEDHRSGRQSKPNCLFLLLRAKLLYQKKNYMASLKIFQELLVINPVLQPDPRIGIGLCFWQLKDSKMAIKSWQRALQLNPKNTSASILVLLGEFRESFTNSTNDKTFKEAFTKALSDLNNIFSENQHNPVLLTLLQTYYYFKGDYQTVLDIYHHRILKMSPMIAKIVLSESSFWCGRAHYALGDYRKSFIMFQESLKKNEDNLLAKLGLGQTQIKNNLLEESIITFENLYKTNESLQELNYILGMLYAGKAFDAKTAKNTSAKEQSNLNEKALKYLERYLKLTLATKNQLVISRAYLVISQLYELQNQYKTSLDYLSKALEEMEFIKKEIPLEVLNNLACYHFINGDFIKADDLFKQAKAKVSDKDESVNITLEYNIARTNEKNDCEKSESIYSQVTSLHPAYIAARIRNLYLKFAQSKIEDSDMSTEMNKLLDLNKSDLEIRSFYGWYLKNSKERKNNEKSTTHNKETLVKYNSHDAYALISLANLYVTIARDGKKSRNPKEQEKSKHSYLKAIQLYQKVLQVDPFNIFAAQGLAIIFAESKRLGPALEILRKVRDSLDNEDVQLNLAHCYLEMREYGKAIENYELVLKKFDNEKTRPHILNLLGRAWYARAIKERSVNFYQKALENAKTALDLFVKESSKSKFIHSVKFNIALLHFQIAETLRRSNPKFRTVQQIKDSLEGLKEGLELFRELNDLKEFNMIPKEELEQRIQLGETTMKSALERSLNEQEEFEKEQSAKIDEARKILEENELKEQGWMKQEEEARRLKLEKQAEEYRKLQDEAQKLIQEREAMAISEHNVKDDSDLSDKDNEYDEEKPRQKRKRSTKTKNSGESKRRKAAKKTLSDSDEDDDDVVKKPSHNKGKKSQLSNEFIEDSDEEEAQMSGSEQNKNDDNDENNDNDDNDGLF |
| binds | – | – | – | no binding | no binding | Bud27 (protein, UniProt P43573 1-796) MDLLAASVESTLKNLQDKRNFLSEQREHYIDIRSRLVRFINDNDDGEEEGEGQGMVFGDIIISTSKIYLSLGYEYYVEKTKEEAITFVDDKLKLMEDAIEQFNLKIEEAKKTLDNLNHMEDGNGIEEDEANNDEDFLPSMEIREELDDEGNVISSSVTPTTKQPSQSNSKKEQTPAVGPKEKGLAKEKKSKSFEENLKGKLLKRNDEVKKKVQPSKVDTENVYTFADLVQQMDQQDELEDGYIETDEINYDYDAFENSNFKVNDNYEEDDEDEDEEEYLNHSIIPGFEAQSSFLQQIQRLRAQKQSQDHEREEGDVNKSLKPILKKSSFAENSDKKQKKKQVGFASSLEIHEVENLKEENKRQMQSFAVPMYETQESTGIANKMTSDEFDGDLFAKMLGVQEADEVHEKYKEELINQERLEGEASRSNRRTRVSRFRKDRASKKENTLSTFKQETTRSVENEVVEKEPVVGDIIEKEPVVGDVIEKEPVVGDVIEKEPAVTDIVEREPAVNDIVERKPVVGDIIEKEPTINDIVEKEPEINSKSEFETPFKKKKLKSLQKPRSSKSMKKKFDPKILENISDDDYDDDDDGNKKLLSNKSKNNTDEQDKFPSKIQEVSRSMAKTGATVGSEPVRITNVDYHALGGNLDDMVKAYSLGLYDDDLEEDPGTIVEKLEDFKEYNKQVELLRDEIRDFQLENKPVTMEEEENDGNVMNDIIEHEFPESYTNDEDEVALHPGRLQEEVAIEYRRLKEATASKWQSSSPAAHTEGELEPIDKFGNPVKTSRFRSQRLHMDSKP |

Where two headings read alike, the source gives them in different places. No constants are given. Whether binding was seen depends on the method and setting. Binding seen in cells or lysates may run through a third protein. Here binding means that the protein was enriched with, or labelled near, the bait; the list need not be complete. For some of these results: A no says only that the protein was not detected with the bait. Sequences can lack the tags named with a protein.
